Data on 63 molecules can be found in PubChem BioAssay AID445 (National Center for Advancing Translational Sciences (NCATS), 2006).

The list shows a part of the results. Further columns of the screen follow, without active or inactive calls. Most of these compounds were active or inconclusive in the main read-out, so they are no random draw. The note in brackets gives the kind of curve behind each potency; many fits are weak.

The test can be described thus: IkB Signaling. The settings on record: ABC-DLBCL IkBa-CBG/CBR dual luciferase ratio (green luciferase fused to IkBa over red control in OCI-Ly3 lymphoma cells), 4 h. In a few lines:
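Curves were fitted separately to fusion (green), unfused (red) and ratio luminescence, then classed by r2, magnitude and activity. Cells: OCI-Ly3, 4 h compound plus doxycycline at 37C; 10 uM MG-132 defined full response.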

Setting [1] is: measured here: control luc red channel unless noted.
The mark [2] stands for this setting: measured here: IkB-luc green channel.
[3] abbreviates: measured here: control luc red channel.

As for `CC(=O)N1CCc2c(sc(NC(=O)CSc3ccc(F)cc3)c2-c2nc3ccccc3s2)C1`, the AC50 under setting [1] was 12.6 µM [falling, single point].
On the same count and under the same terms, next, `Cc1ccc(Cn2c(CO)cnc2SCC(=O)Nc2cccc(F)c2)cc1`: 1 µM [falling, full curve, poor fit]; `Cc1cc(C)cc(CC2CC(=O)N(c3ccc4c(c3)OCCO4)C2=O)c1` (stereo not given): 25.1 µM [falling, partial curve].
With `CCn1c(C)c(C)c2cc(C(=O)NCCc3cc(OC)ccc3OC)ccc21`, the AC50 under setting [1] was 39.8 µM [falling, single point].
On the same count and under the same terms, as for `CCCn1c(CN2CCCCC2C)nc2c1c(=O)n(C)c(=O)n2C` (stereo not given), the figure is 20 µM [falling, single point]; as for `Cc1oc2ncn(CC(C)C)c(=O)c2c1C(=O)NCCCN(C)Cc1ccccc1`, 0.0398 µM [rising, partial curve, poor fit].
`CC(C)(C)c1ccc(C(=O)Nc2nnc3n2CCS3)cc1`: the half-maximal activity concentration (AC50) is, setting by setting: under setting [2], 31.6 µM [rising, single point]; under setting [3], 1.26 µM [rising, full curve].
As for `CC(=O)Nc1ccc(OC/C=C(\C)Cl)cc1`, the AC50 under setting [1] was 0.126 µM [rising, full curve, poor fit].
With `CCOC(=O)Cn1c(=O)oc2cc(S(=O)(=O)Nc3ccccc3F)ccc21`, under setting [1], the AC50 was 15.8 µM [falling, single point].
With `CCc1nc2nc(C)cc(Nc3ccc(F)c(Cl)c3)n2n1`, the AC50 under setting [1] is 1.26 µM [rising, full curve].
On the same count and under the same terms, as for `O=C1CC(c2ccc(Br)cc2)c2c(ccc3ccccc23)N1` (stereo not given), the figure is 15.8 µM [falling, partial curve]; as for `COc1ccc(C(=O)N(Cc2nc(-c3ccc(C)cc3)no2)C2CCCCC2)cc1OC`, 15.8 µM [falling, partial curve]; as for `Cc1cccc(C(=O)Nc2ccccc2OCc2cc(=O)n3cc(C)ccc3n2)c1`, 12.6 µM [falling, partial curve].
Still for that read-out and setting: next, `CC(=O)N1CCCc2cc(S(=O)(=O)N3CCCC(C(=O)Nc4ccc(C)c(F)c4)C3)ccc21` (stereo not given): 12.6 µM [falling, partial curve]; `CC(=O)Nc1ccc2nc(SCCOc3ccccc3Cl)sc2c1`: 20 µM [falling, partial curve].
Turning to `CCOC(=O)c1c(C)[nH]c(C)c1S(=O)(=O)N(C)CC(=O)Nc1ccc(C)c(F)c1`, under setting [1], the AC50 is 3.16 µM [falling, full curve, poor fit].
Same read-out and setting: as for `O=C(c1ccc(-c2ccccc2)cc1)N1CCN(C(=O)c2ccco2)CC1`, the figure is 25.1 µM [falling, partial curve]; as for `Cc1cc(C)c(NC(=O)C2CCCN(C(=O)c3cnn(-c4ccccc4)c3-n3cccc3)C2)c(C)c1` (stereo not given), 12.6 µM [falling, partial curve].
On the same count and under the same terms, next, `CCc1ccc(S(=O)(=O)c2cn(Cc3ccc(OC)cc3)c3cc(OC)c(OC)cc3c2=O)cc1`: 12.6 µM [falling, single point]; `COc1ccc(NC(=O)CCc2c(C)nc3cc(-c4cccc(F)c4)nn3c2C)cc1Cl`: 2 µM [falling, partial curve]; `CC(C)OCCCn1c(SCc2ccccc2Cl)nc2c(sc3ccccc32)c1=O`: 3.16 µM [rising, partial curve].
In the case of `Fc1cccc(Cl)c1CSc1nnc(COc2cccc3cccnc23)o1`, the AC50 under setting [1] is 39.8 µM [falling, single point] [measured here: IkB-luc green channel].
The same measure, in the same setting: next, `Cn1cc(-c2nc3ccccc3[nH]2)c2ccccc21`: 15.8 µM [falling, partial curve].
On the same count and under the same terms, next, `CCOc1ccc(NS(=O)(=O)c2ccc(SC)cc2)cc1`: 7.94 µM [falling, partial curve]; `COc1ccc(CCNC(=O)c2cc(=O)[nH]c3ccc(S(=O)(=O)N4CCCCC4)cc23)cc1OC`: 2 µM [rising, full curve, poor fit].
Same read-out and setting: as for `CCOc1nc(C)ccc1-c1noc(-c2ccncc2)n1`, the figure is 2 µM [rising, full curve, poor fit]; as for `CCN(c1cc(C)cc(C)c1)S(=O)(=O)c1nnc(NC(=O)c2ccccc2C)s1`, 39.8 µM [falling, single point].
In the case of `CCn1c(C)nc2cc(C(=O)OC(C(F)(F)C(F)F)C(F)(F)C(F)F)ccc21`, under setting [1], the AC50 was 39.8 µM [falling, single point].
As for `CC(=O)Nc1ccc(S(=O)(=O)Nc2nc3ccccc3nc2Sc2nncn2C)cc1`, under setting [1], the AC50 is 0.398 µM [falling, full curve].
Same read-out and setting: as for `CCc1cccc(C)c1NC(=O)c1cc(S(=O)(=O)N2CCN(c3ccccc3)CC2)ccc1F`, the figure is 39.8 µM [falling, partial curve]; as for `Cc1cccc(CCNC(=O)CCc2c(C)nc3c(c(C)nn3-c3ccccc3)c2C)c1`, 7.94 µM [falling, full curve]; as for `O=C1CCN(Cc2nnnn2CC2CCCO2)c2ccccc2N1` (stereo not given), 31.6 µM [falling, single point].
The same measure, in the same setting: as for `CN(C)c1ccc(C(=O)NCc2ccc3c(c2)CCN3C(=O)c2ccc(Cl)cc2)cc1`, the figure is 3.98 µM [falling, partial curve].
As for `CN1C(=O)c2ccccc2Sc2ccc(NC(=O)N3CCN(c4cccc(Cl)c4)CC3)cc21`, under setting [1], the AC50 is 12.6 µM [falling, partial curve].
`Clc1ccc(CNc2ncnc3onc(-c4ccc(Cl)cc4)c23)cc1`: the AC50 under setting [1] is 31.6 µM [falling, single point].
Regarding `COc1ccc(C(=O)NCc2ccc3c(c2)CCN3C(=O)c2ccc(Cl)cc2)c(OC)c1`, the half-maximal activity concentration (AC50) under setting [1] was 31.6 µM [falling, partial curve].
The same measure, in the same setting: as for `COc1cc(OC)cc(C(=O)Nc2cccc(-c3cn4ccsc4n3)c2)c1`, the figure is 39.8 µM [falling, single point]; as for `O=C(COc1ccccc1Cl)Nc1ccc2nc(SCC(=O)N3CCOCC3)sc2c1`, 0.631 µM [falling, full curve].
With `CCOc1cccc2cc(C(=O)Nc3cc(C)on3)c(=O)oc12`, the concentration at half-maximal activity (AC50) under setting [1] is 1 µM [falling, full curve].
As to `Cc1ccccc1Cn1cc(S(=O)(=O)c2ccc(F)cc2)c(=O)c2cc3c(cc21)OCO3`, the AC50 under setting [1] is 20 µM [falling, partial curve].
Still for that read-out and setting: next, `CCc1nccn1S(=O)(=O)c1cc(Br)ccc1Br`: 1 µM [rising, full curve]; `O=C(c1ccccc1-c1nc(-c2ccc(Cl)cc2)no1)N1CCCC1`: 39.8 µM [falling, single point].
Same read-out and setting: as for `COC(=O)c1sccc1S(=O)(=O)N(CC(=O)Nc1cc(F)ccc1F)c1ccc(C)c(C)c1`, the figure is 2.51 µM [falling, full curve].
The same measure, in the same setting: as for `CCN(CC)c1nn2c(=O)c(C(=O)NCc3ccccc3Br)cnc2s1`, the figure is 31.6 µM [falling, partial curve]; as for `CCOc1ccc(NC(=O)N2CCN(C(=O)c3nsc4ccccc34)CC2)cc1`, 0.126 µM [falling, partial curve]; as for `Cc1cccc(NC(=O)c2ccc(Cn3nc(N4CCN(c5ccccc5)CC4)ccc3=O)o2)c1C`, 31.6 µM [falling, single point].
`O=S(=O)(Nc1cccc(-c2ccc(N3CCOCC3)nn2)c1)c1ccc(F)c(C(F)(F)F)c1`: the AC50 under setting [1] is 25.1 µM [falling, single point].
Turning to `COc1ccc(-c2cc(C(F)(F)F)nc(SCC(=O)N(C)Cc3ccccc3)n2)cc1`, under setting [1], the half-maximal activity concentration (AC50) was 3.16 µM [falling, partial curve].
On to `COc1ccc(-c2nn(C)c(=O)c3ccccc23)cc1NC(=O)Cn1nc(C)c2ccccc2c1=O`, for which, under setting [1], the AC50 is 10 µM [falling, partial curve].
Take `COc1ccc(OC)c(CNC(=O)NCc2noc3ccc(C)cc23)c1`: under setting [1], the half-maximal activity concentration (AC50) was 0.01 µM [falling, full curve, poor fit].
For `O=C(CSc1cn(CC(=O)N2CCCCC2)c2ccccc12)NCc1ccccc1Cl`, the AC50 under setting [1] was 39.8 µM [falling, single point].
Consider `COc1ccccc1OCC(=O)c1[nH]c(C)c(C(C)=O)c1C`, for which the AC50 under setting [1] is 31.6 µM [falling, partial curve].
Regarding `O=C(CN1C(=O)c2cccnc2Sc2ccccc21)Nc1cc(F)ccc1F`, the AC50 under setting [1] is 20 µM [falling, partial curve].
Same read-out and setting: next, `COc1ccccc1N(CC(=O)Nc1ccccc1C(F)(F)F)S(=O)(=O)c1ccc(C)cc1`: 25.1 µM [falling, partial curve]; `Cc1ccc(C)c(N2CCN(C(=O)Cn3nc(C)c4sc5ccccc5c4c3=O)CC2)c1`: 10 µM [falling, partial curve].
On the same count and under the same terms, as for `CCC(O)c1nc2ccccc2n1Cc1cc(C)ccc1C` (stereo not given), the figure is 39.8 µM [falling, single point]; as for `CC(C)Nc1ncnc2c1cnn2-c1ccccc1`, 12.6 µM [falling, partial curve].
The same measure, in the same setting: next, `CCCOc1ccccc1-c1nc(SCCC(=O)O)n[nH]1`: 25.1 µM [falling, partial curve].
Turning to `CCN(CC)c1ccc(C2C(C(N)=O)=C(C)Nc3nc(SCc4ccccc4Cl)nn32)cc1` (stereo not given), the AC50 under setting [1] was 0.251 µM [rising, full curve, poor fit].
As for `Cc1ccc(C(=O)Nc2nc3ccccc3n2CCN2CCCC2)cc1`, the AC50 by setting is: under setting [2], 31.6 µM [rising, partial curve]; under setting [3], 3.98 µM [falling, partial curve].
Regarding `COc1ccc(CNC(=O)C2(c3cccs3)CCOCC2)cc1`, under setting [1], the AC50 was 31.6 µM [falling, single point].
Same read-out and setting: next, `CCNc1c2c3c(cccc3n(C)c1=O)C(=O)c1ccccc1-2`: 15.8 µM [falling, partial curve]; `CCN(CC)S(=O)(=O)c1cccc(C(=O)Nc2ccccc2C(=O)Nc2ccc(OC)cc2)c1`: 10 µM [falling, partial curve].
